At least one structure is not confirmed: it was looked up by name or label, or the drawing left a doubt.
System: Gadd45b expression
Assay: Gadd45b expression in cultured primary hippocampal neurons by Q-PCR
Format: cell-based, mice
Details: agent alone; K^+ 50 mM, glutamate 20 μM, APV 200 μM, bicuculline 50 μM; FIG. 5A, 5C
Text: Dentate gyrus tissue was rapidly micro-dissected from adult WT mice, or with ECT, spatial exploration or running. […] For gene expression analysis, total RNA fraction was immediately isolated after dissection (Qiagen), treated with DNAase and reverse-transcribed into the first-strand cDNA (Invitrogen). Specific primers (listed in Table 1) were used in SYBR-green based quantitative real-time PCR to measure the expression level of target genes with the ΔΔT method (ABI). Most primers were designed to span introns to further prevent genomic DNA amplification during the PCR reaction.
Primary hippocampal neurons were prepared from hippocampi of P0 mice and plated on poly-lysine coated coverslips in Neurobasal-A medium supplemented with B27 (Invitrogen) as previously described (H. Song, C. F. Stevens, F. H. Gage, Nature 417, 39 (2002)). AraC (5 μM) was added to eliminate proliferating cells. One-week old culture was used for all experiments. For pharmacological experiments, cultures were pretreated with the following inhibitors 30 minutes before stimulation with K^+ (50 mM) or glutamate (20 μM) for 1 hr: BAPTA (50 μM), Nimodipin (10 μM), APV (200 μM), bicuculline (50 μM), KN92 or KN93 (10

**Q.** For `CN1CCc2cc3c(cc2[C@H]1[C@@H]1OC(=O)c2c1ccc1c2OCO1)OCO3` [bicuculline], which Gadd45b expression is on record?
**A.** Its Gadd45b expression is “opposite effect”.
